Values quoted from earlier work in patent US20100330177A1, “PHARMACEUTICAL COMPOSITIONS OF A COMBINATION OF METFORMIN AND A DIPEPTIDYL PEPTIDASE-IV INHIBITOR” (Merck Sharp & Dohme Corp., priority 2009, published 2010).
For at least one compound, name, drawing or mass did not settle the structure.

Tested on: Type 2 diabetes
Details: oral administration, human Type 2 diabetics; cited from earlier work

N#C[C@@H]1C[C@@H]2C[C@@H]2N1C(=O)[C@@H](N)C12CC3CC(CC(O)(C3)C1)C2 [saxagliptin]
effect on fasting glucose, postprandial glucose excursion and HbA1c: reduce fasting glucose and postprandial glucose excursion in association with significantly reduced HbA1c levels
